From the supplement of paper PMC11732987, “Enantioselective OTUD7B fragment discovery through chemoproteomics screening and high-throughput optimisation” (Communications Chemistry, 2025)
This is one part of the list. The data scatter; read single values as rough.

Sequences of proteins named here, by UniProt entry; tags and fusion partners are left off. A change or cut given only in a name is not applied to a line headed by its entry. Residues count along the entry.
UniProt Q9UHJ6: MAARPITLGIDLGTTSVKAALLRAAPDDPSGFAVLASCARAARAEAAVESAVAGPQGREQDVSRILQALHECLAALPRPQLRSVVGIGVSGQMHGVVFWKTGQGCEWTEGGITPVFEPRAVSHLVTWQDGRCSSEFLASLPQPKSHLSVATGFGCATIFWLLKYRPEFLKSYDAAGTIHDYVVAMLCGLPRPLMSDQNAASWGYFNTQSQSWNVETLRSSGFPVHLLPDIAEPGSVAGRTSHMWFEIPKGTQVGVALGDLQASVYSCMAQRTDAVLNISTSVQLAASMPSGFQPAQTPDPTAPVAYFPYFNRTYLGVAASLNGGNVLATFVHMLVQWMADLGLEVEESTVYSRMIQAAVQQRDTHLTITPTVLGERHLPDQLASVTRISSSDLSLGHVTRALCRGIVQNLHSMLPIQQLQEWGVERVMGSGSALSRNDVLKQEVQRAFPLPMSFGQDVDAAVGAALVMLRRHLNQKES
UniProt P60468, whole entry, looked up: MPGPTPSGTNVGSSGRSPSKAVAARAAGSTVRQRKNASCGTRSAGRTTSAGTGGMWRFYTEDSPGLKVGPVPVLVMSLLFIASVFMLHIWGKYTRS
UniProt Q99611, 2-30: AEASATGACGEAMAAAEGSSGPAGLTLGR
UniProt O15304: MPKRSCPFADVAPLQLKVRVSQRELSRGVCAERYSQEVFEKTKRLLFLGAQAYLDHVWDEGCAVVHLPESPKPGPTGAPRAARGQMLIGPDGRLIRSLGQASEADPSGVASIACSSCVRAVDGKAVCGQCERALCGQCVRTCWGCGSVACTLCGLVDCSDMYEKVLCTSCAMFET
UniProt Q9BRV8: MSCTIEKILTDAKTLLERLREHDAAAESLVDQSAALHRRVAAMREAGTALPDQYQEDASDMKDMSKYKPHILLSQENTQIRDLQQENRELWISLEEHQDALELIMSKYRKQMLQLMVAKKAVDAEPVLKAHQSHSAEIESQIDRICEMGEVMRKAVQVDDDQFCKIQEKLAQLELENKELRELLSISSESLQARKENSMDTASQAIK
UniProt Q9Y6Y8: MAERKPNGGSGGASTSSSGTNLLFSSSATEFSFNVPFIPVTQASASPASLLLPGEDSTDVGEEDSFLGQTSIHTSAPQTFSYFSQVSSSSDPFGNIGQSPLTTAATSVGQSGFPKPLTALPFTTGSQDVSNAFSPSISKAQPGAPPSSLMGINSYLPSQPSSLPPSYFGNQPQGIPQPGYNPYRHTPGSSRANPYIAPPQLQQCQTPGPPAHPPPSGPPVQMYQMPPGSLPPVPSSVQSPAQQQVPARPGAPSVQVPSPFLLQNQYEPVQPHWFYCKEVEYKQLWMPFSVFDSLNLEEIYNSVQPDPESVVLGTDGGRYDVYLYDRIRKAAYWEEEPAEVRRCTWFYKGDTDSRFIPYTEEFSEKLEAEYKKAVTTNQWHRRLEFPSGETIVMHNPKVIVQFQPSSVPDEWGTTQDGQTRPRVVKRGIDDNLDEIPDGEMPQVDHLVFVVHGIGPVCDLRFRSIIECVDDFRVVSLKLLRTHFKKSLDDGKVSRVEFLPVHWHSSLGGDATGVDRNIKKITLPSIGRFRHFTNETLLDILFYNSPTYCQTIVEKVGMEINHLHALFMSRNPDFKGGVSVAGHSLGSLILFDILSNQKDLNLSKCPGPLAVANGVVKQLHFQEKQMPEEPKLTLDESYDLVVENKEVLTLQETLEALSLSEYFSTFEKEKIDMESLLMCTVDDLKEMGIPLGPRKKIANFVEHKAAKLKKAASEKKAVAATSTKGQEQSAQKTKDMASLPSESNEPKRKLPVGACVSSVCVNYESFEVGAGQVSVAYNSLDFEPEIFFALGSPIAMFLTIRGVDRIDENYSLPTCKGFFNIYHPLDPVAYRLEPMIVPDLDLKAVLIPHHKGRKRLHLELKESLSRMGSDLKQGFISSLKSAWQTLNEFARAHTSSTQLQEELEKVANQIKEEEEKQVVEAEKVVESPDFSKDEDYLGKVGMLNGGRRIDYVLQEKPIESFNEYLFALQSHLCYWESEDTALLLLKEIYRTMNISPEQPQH
UniProt Q9GZR1, 349-369: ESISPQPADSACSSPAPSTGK
UniProt A0MZ66, whole entry, looked up: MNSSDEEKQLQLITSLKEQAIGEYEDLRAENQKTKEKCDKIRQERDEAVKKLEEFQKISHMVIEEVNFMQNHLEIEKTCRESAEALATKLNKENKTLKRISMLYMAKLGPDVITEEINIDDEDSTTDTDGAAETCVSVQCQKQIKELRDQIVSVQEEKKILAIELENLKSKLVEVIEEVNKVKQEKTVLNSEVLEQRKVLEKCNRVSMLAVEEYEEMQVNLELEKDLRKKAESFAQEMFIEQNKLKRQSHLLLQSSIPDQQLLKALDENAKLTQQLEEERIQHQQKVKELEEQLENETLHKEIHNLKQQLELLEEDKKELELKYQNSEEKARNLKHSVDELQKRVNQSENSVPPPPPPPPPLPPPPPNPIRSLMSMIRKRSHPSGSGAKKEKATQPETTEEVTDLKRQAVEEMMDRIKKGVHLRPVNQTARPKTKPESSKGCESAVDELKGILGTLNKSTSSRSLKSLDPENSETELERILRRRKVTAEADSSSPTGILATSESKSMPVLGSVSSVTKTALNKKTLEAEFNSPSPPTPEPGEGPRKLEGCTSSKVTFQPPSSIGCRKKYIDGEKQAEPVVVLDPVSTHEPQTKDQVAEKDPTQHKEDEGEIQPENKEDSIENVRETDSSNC
UniProt Q8TBK2: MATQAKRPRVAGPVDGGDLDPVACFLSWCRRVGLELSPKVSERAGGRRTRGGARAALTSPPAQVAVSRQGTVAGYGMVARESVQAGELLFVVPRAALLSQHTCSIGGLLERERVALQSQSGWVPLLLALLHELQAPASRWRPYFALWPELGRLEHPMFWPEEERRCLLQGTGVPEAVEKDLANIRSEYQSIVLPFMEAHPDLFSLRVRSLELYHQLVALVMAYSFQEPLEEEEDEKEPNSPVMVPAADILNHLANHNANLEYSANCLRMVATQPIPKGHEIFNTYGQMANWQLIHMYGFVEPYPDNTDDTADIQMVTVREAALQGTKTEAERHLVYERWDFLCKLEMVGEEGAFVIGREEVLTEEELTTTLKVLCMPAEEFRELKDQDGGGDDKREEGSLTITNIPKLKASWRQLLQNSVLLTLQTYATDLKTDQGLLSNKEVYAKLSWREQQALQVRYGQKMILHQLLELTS
UniProt Q9BY12, 294-313: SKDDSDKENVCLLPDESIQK
UniProt Q99590: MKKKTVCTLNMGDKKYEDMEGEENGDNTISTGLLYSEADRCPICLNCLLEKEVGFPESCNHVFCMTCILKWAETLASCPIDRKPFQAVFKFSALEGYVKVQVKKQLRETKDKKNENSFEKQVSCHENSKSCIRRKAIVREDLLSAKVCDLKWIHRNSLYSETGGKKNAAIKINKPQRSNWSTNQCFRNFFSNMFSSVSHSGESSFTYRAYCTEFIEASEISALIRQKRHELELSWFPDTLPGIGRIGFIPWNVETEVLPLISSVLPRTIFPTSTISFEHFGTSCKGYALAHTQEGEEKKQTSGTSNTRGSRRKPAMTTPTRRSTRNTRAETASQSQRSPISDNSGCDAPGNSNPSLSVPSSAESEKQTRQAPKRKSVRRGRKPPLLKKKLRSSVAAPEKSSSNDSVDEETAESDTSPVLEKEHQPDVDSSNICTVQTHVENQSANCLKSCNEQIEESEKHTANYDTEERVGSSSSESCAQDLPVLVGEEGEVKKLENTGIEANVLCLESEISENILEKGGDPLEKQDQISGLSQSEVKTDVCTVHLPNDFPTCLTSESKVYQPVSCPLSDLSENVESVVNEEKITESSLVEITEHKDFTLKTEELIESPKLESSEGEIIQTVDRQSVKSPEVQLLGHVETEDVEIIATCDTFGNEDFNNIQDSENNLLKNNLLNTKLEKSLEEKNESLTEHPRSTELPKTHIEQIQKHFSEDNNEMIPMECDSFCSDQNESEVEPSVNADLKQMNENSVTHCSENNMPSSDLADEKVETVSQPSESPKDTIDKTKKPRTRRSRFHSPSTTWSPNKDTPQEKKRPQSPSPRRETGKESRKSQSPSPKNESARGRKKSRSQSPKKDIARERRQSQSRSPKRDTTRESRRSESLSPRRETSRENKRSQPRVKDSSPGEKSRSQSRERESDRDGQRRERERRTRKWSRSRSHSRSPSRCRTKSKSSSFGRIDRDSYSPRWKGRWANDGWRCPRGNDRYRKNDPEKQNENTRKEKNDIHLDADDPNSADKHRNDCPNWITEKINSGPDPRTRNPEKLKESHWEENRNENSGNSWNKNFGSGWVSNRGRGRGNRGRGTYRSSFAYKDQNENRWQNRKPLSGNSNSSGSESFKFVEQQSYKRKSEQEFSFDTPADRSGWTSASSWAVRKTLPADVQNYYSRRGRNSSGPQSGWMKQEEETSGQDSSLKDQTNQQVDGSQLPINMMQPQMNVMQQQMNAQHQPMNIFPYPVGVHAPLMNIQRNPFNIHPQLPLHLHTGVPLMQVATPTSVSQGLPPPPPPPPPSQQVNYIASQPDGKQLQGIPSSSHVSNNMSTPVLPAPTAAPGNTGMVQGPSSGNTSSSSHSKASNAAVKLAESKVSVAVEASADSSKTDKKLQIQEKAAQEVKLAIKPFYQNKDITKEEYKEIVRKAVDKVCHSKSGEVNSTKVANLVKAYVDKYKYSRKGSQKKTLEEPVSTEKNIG
UniProt A1X283: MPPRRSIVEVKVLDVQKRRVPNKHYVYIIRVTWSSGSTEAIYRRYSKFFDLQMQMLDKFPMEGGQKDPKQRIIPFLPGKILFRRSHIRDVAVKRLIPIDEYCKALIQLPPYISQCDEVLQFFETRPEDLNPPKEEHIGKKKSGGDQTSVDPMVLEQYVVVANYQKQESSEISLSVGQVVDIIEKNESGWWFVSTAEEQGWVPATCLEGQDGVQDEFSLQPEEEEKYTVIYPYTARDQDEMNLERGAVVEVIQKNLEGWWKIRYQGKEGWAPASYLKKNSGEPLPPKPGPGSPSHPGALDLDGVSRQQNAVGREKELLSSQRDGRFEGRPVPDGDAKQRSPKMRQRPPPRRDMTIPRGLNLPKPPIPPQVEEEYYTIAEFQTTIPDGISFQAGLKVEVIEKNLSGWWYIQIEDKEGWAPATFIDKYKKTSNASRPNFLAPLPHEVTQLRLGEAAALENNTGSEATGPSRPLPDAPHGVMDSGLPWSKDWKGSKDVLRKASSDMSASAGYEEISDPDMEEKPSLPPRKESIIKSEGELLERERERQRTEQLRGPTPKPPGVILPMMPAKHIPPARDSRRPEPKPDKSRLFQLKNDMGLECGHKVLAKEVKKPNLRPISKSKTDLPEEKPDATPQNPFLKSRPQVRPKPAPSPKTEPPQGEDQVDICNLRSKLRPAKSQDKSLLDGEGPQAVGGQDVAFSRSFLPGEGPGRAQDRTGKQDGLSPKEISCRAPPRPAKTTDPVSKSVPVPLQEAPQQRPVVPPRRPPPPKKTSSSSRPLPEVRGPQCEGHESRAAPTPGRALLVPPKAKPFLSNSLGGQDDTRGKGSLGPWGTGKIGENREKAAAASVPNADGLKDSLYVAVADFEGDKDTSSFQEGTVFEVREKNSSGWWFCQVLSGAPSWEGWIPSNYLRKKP

compound: ClCC(=O)N[C@H]1CCCc2ccccc12; test: log2 mean competition ratio of IA-DTB cysteine labelling (DMSO/compound) (log2 ratio); higher = stronger cysteine engagement by compound; details: 50 µM; treatment time: 4 h; cell line lysate: HEK293T
Description: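 IA-DTB competitive cysteine chemoproteomics in HEK293T RIPA lysate. Lysates were treated with compound 29 or 30 at 50 or 200 µM for 4 h, then IA-DTB (500 µM, 1 h), trypsin-digested, NeutrAvidin-enriched and analysed by diaPASEF. Competition ratio = intensity DMSO / intensity compound (n=4 treated, n=64 DMSO); binding: mean log2 CR ≥ 1 and p ≤ 0.05 plus QC filters. Target is the cysteine site.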

Target	log2 mean competition ratio
SHPK C38 (UniProt Q9UHJ6)	0.234
SCARF2 C350	0.165
SEC61B C39 (UniProt P60468)	0.0917
SEPHS2 C10 (UniProt Q99611)	0.148
SIVA1 C6 (UniProt O15304)	0.724
SELENOO C364 (UniProt Q9BVL4)	-0.0601
SIKE1 C164 (UniProt Q9BRV8)	0.401
SEC23IP C814 (UniProt Q9Y6Y8)	-0.122
SENP6 C360 (UniProt Q9GZR1)	0.00881
SEPTIN5 C300	-0.601
SHTN1 C442 (UniProt A0MZ66)	-0.138
SETD6 C166 (UniProt Q8TBK2)	-0.0585
SCAPER C304 (UniProt Q9BY12)	-0.277
SHMT2 C80	-0.0807
SCAPER C71 (UniProt Q9BY12)	-0.146
SETD2 C2532 (UniProt Q9BYW2)	0.18
SCAF11 C1020 (UniProt Q99590)	-0.172
SAPCD2 C195	0.395
SEC23IP C467 (UniProt Q9Y6Y8)	-0.271
SH3PXD2B C598 (UniProt A1X283)	0.0674

same assay, conditions: 200 µM; treatment time: 4 h; cell line lysate: HEK293T

Target	log2 mean competition ratio
SHPK C38 (UniProt Q9UHJ6)	0.17
SCARF2 C350	0.213
SEC61B C39 (UniProt P60468)	0.0987
SEPHS2 C10 (UniProt Q99611)	-0.196
SIVA1 C6 (UniProt O15304)	1.16
SELENOO C364 (UniProt Q9BVL4)	-0.252
SIKE1 C164 (UniProt Q9BRV8)	0.227
SEC23IP C814 (UniProt Q9Y6Y8)	-0.384
SENP6 C360 (UniProt Q9GZR1)	-0.124
SEPTIN5 C300	-0.415
SHTN1 C442 (UniProt A0MZ66)	0.0856
SETD6 C166 (UniProt Q8TBK2)	-0.0485
SCAPER C304 (UniProt Q9BY12)	0.0999
SHMT2 C80	0.404
SCAPER C71 (UniProt Q9BY12)	0.322
SETD2 C2532 (UniProt Q9BYW2)	0.437
SCAF11 C1020 (UniProt Q99590)	-0.208
SAPCD2 C195	-0.375
SEC23IP C467 (UniProt Q9Y6Y8)	-0.166
SH3PXD2B C598 (UniProt A1X283)	-0.0596
